Some of the results follow. These are further read-outs of the screen, such as a control signal, another cell line or another target. No call is given for them. The list favours compounds with an active or inconclusive main result. Words in brackets tell the shape of the fitted curve; partial curves, single points and poor fits give uncertain potencies.
Experiment: qHTS Assay for Lipid Storage Modulators in Drosophila S3 Cells;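 on cell number change: cells counted by Cell Tracker Red CMTPX staining in the red channel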
Conditions: BODIPY lipid droplet fluorescence, 18-24 h; for cell number change: measured here: cell count max response, cells fed with added oleic acid
Outline: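 Drosophila S3 cells got compounds at several concentrations plus oleic acid (400 uM solution). Laser-scanning cytometry with 488 nm excitation read lipid droplets at 500-530 nm and cells at 575-640 nm. Percent activity was relative to 20 uM Triacsin C.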

[1] = measured here: cell number channel AC50, cells fed with added oleic acid
[2] = measured here: lipid fluorescence (Fed channel) AC50, cells fed with added oleic acid

SMILES	cell number change [%]	AC50 [1]	AC50 [2]
O=C(c1cc(Cl)ccc1OCc1ccccc1)N1CCOCC1	-2.48	6.51 µM [rising, single point]	–
Cc1ccccc1NC(=O)COC(=O)C1CC2CCCC(C1)C2=O (stereo not given)	-2.92	–	6.51 µM [falling, single point]
O=C(NC1CC1)C1=C[C@@H](c2coc3ccccc3c2=O)C[C@@H](OCc2ccc(CO)cc2)O1	–	–	23.1 µM [rising, partial curve]
COc1ccc(S(=O)(=O)Nc2cc3c4c(c2)CC(=O)N4CCC3)cc1	–	0.103 µM [rising, full curve, poor fit]	–
NC(N)=N/N=C/c1ccc(OCc2ccccc2)c(OCc2ccccc2)c1	12.8	–	23.1 µM [falling, single point]
CCc1ccc(-c2cc(C)no2)cc1S(=O)(=O)N1CCOc2ccc(C)cc21	-106	16.4 µM [falling, partial curve]	2.31 µM [falling, full curve]
Cc1cc(C)cc(N(CC(=O)NC2CC3CCC2C3)S(C)(=O)=O)c1 (stereo not given)	5.34	0.731 µM [falling, full curve, poor fit]	0.651 µM [falling, full curve]
C=CCN1C(=O)c2ccc(C(=O)N(C)CC(=O)Nc3ccccc3Cl)cc2C1=O	–	0.517 µM [rising, full curve]	–
O=C(c1ccccc1Cl)N1CCNCC1	-34.7	4.61 µM [falling, partial curve]	–
CCCCCN(C(=O)CSc1n[nH]c(-c2ccc(C)cc2)n1)c1c(N)n(CCCC)c(=O)[nH]c1=O	-9.78	–	5.17 µM [falling, single point]
CC1=Nn2c(nnc2-c2ccccn2)SC1	-11.4	0.461 µM [falling, full curve]	6.51 µM [falling, partial curve, poor fit]
Cc1ccc(C2CC2C(=O)NNC(=S)Nc2ccc(Cl)cc2)cc1 (stereo not given)	–	3.26 µM [falling, partial curve]	2.31 µM [falling, full curve]
COc1cccc(CC(=O)Nc2cc(S(=O)(=O)N3CCOCC3)ccc2N2CCN(C)CC2)c1	5.78	–	0.231 µM [rising, full curve, poor fit]
O=C(NCC(=O)N1CCN(C(=O)c2ccco2)CC1)c1ccc(Br)cc1	1.39	–	1.64 µM [rising, partial curve]
Cc1ccc(C2(C)NC(=O)N(CC(=O)N3CCN(S(=O)(=O)c4ccc(Cl)s4)CC3)C2=O)cc1 (stereo not given)	-12.7	–	18.4 µM [falling, single point]
O=[N+]([O-])c1c(NCCCO)cc(SCc2ccco2)c2nonc12	-31.8	32.6 µM [falling, single point]	0.103 µM [falling, full curve, poor fit]
Cc1nn(CC(=O)NCCCN2CCC(N3CCCCC3)CC2)c(=O)c2cc(-c3ccccc3)nn12	16.4	0.461 µM [rising, full curve, poor fit]	–
O=C(c1cc(-c2ccccn2)nc2ccc(Br)cc12)N1CCc2ccccc2C1	–	2.91 µM [rising, partial curve]	–
CS(=O)(=O)c1ccccc1C(=O)Nc1cccc2ncccc12	-0.794	0.082 µM [rising, full curve, poor fit]	–
COc1ccccc1-c1ccc(SCc2cccc(C)c2)nn1	-69.1	2.59 µM [falling, partial curve, poor fit]	1.64 µM [falling, full curve]

Shown as comma-separated lines: 3 of the compounds above.
SMILES,cell number change [%],AC50 [1],AC50 [2]
CCc1ccc(-c2cc(C)no2)cc1S(=O)(=O)N1CCOc2ccc(C)cc21,-106,"16.4 µM [falling, partial curve]","2.31 µM [falling, full curve]"
CCCCCN(C(=O)CSc1n[nH]c(-c2ccc(C)cc2)n1)c1c(N)n(CCCC)c(=O)[nH]c1=O,-9.78,–,"5.17 µM [falling, single point]"
CS(=O)(=O)c1ccccc1C(=O)Nc1cccc2ncccc12,-0.794,"0.082 µM [rising, full curve, poor fit]",–

Further entries follow:

SMILES	cell number change [%]	AC50 [1]	AC50 [2]
O=C(c1ccc(C(F)(F)F)cc1)C1CCCN(C(=O)c2csnn2)C1 (stereo not given)	22.6	–	–
COc1ccccc1N1CCN(C2CCCN(C(=O)C3=NN(C)C(=O)CC3)C2)CC1 (stereo not given)	23.2	–	–
CCOC(=O)C(C)Sc1nc2c([nH]c3ccccc32)c(=O)n1C (stereo not given)	-57.4	16.4 µM [falling, single point]	16.4 µM [falling, single point]
Cc1nnc(SCC(=O)Nc2c(C)n(C)n(-c3ccccc3)c2=O)n1Cc1ccccc1	28.4	–	–
CSc1ccccc1C(=O)NC1CCCN(c2ccc(C(F)(F)F)cn2)C1 (stereo not given)	6.12	–	6.51 µM [rising, partial curve, poor fit]
CCN(C(=O)Cc1c(C(=O)O)n(C)c2ccccc12)c1cc(OC)ccc1OC	–	–	29.1 µM [falling, single point]
O=C(NCc1cccnc1)c1nc(-c2ccc(C(F)(F)F)cc2)no1	-0.339	0.00461 µM [rising, full curve, poor fit]	32.6 µM [rising, single point]
Cc1ccc(CNc2ccc(Cl)cc2[N+](=O)[O-])cc1	-26.8	–	32.6 µM [falling, single point]
O=C(Cc1cccs1)N1CCN=C1SCc1cccc(F)c1	-30	4.11 µM [rising, single point]	1.3 µM [rising, partial curve]
CCOC(=O)C1(CCOc2ccccc2)CCN(CC2CC2)CC1	26.7	–	29.1 µM [rising, single point]
COc1ccccc1COCC(O)CN1CCN(S(=O)(=O)c2cccc(F)c2)CC1 (stereo not given)	-4.24	1.84 µM [rising, partial curve]	2.59 µM [rising, partial curve]
COc1ccc(CSc2n[nH]c(C)n2)cc1[N+](=O)[O-]	–	–	18.4 µM [rising, single point]
CCC(c1nnnn1Cc1cccs1)N1CCN(c2nc3ccccc3s2)CC1 (stereo not given)	-9	–	–
NC(=O)c1ccc(NC(=O)C2CC(=O)N(c3ccc4c(c3)OCCO4)C2)cc1 (stereo not given)	26.8	–	0.411 µM [rising, full curve]
CCC(=O)NNC(=O)CCC(=O)Nc1ccc(C)cc1C	–	6.51 µM [rising, single point]	0.651 µM [rising, single point]
COCCNC(=O)c1cccc(NC(=O)C2=C(C)OCCS2)c1	–	1.64 µM [rising, partial curve, poor fit]	1.84 µM [rising, single point]
CCCNC(=O)c1ccc(CNc2c(N3CCC(C(=O)OCC)CC3)c(=O)c2=O)cc1	5.44	–	–
O=C1CC(c2ccccc2)c2c(O)cc(O)cc2O1 (stereo not given)	38.1	29.1 µM [rising, single point]	–
CC(C)c1nc(C#N)c(NN)o1	-2.12	–	0.058 µM [falling, full curve]
Cc1cccc(/C=N/n2c(-c3cc(-c4ccccc4)n[nH]3)n[nH]c2=S)c1	-78	29.1 µM [falling, partial curve]	25.9 µM [falling, partial curve]

SMILES	cell number change [%]	AC50 [1]	AC50 [2]
O=C(O)CCC1COc2ccccc2O1 (stereo not given)	–	–	29.1 µM [falling, single point]
Cc1cccc(-c2nc(CNC(=O)c3ccco3)cs2)c1	-26.5	–	11.6 µM [falling, single point]
O=C1NN(c2ccc(F)cc2)C(=O)/C1=C\C=C\c1ccco1	-17.3	–	0.164 µM [falling, full curve, poor fit]
COc1ccc(S(=O)(=O)N(C)CC(=O)NCc2cccnc2)cc1	-14.2	–	0.00461 µM [falling, full curve]
CCOc1ccc(C2C(C(=O)c3ccco3)=C(O)C(=O)N2CCN2CCOCC2)cc1 (stereo not given)	1.91	–	–
O=C(CCC(=O)N(CC(=O)NC1CCCCC1)Cc1ccc(F)cc1)Nc1nccs1	–	–	29.1 µM [rising, single point]
COc1cc(NS(=O)(=O)c2ccc(NC(=O)CN3C(=O)c4ccccc4C3=O)cc2)ncn1	-30	0.82 µM [falling, full curve]	3.66 µM [falling, full curve]
O=[N+]([O-])c1ccc(CNC2CCCc3ccccc32)cc1 (stereo not given)	-3.57	–	–
CCN1CCN(Cc2ccc(NC(=O)c3ccc(C)c(NC(=O)c4cc(-c5ccc(Br)cc5)n[nH]4)c3)cc2C(F)(F)F)CC1	-0.106	–	9.2 µM [falling, single point]
Cc1ccc(Cn2c(Sc3ncccn3)nc3c2c(=O)[nH]c(=O)n3C)cc1	–	–	4.11 µM [falling, partial curve]
O=C(Nc1ccc2c(c1)CCCN2C(=O)c1cccs1)c1ccccc1	-8.06	–	–
O=C(NCc1ccc(F)cc1)C1CCCN(S(=O)(=O)c2cccc3nsnc23)C1 (stereo not given)	–	1.3 µM [rising, partial curve]	9.2 µM [rising, partial curve]
Cc1c(C(=O)C(=O)N2c3ccc(F)cc3CCC2C)c2ccccc2n1C (stereo not given)	-15.1	–	18.4 µM [falling, single point]
CCC1CCc2c([nH]c3ccccc3c2=O)O1 (stereo not given)	35.5	9.2 µM [rising, partial curve]	–
N#CCCN(C1CCCCC1)S(=O)(=O)CCOc1ccccc1	11.2	–	29.1 µM [rising, single point]
CC(C)C(=O)Nc1nnc(CSCc2ccccc2F)s1	–	0.58 µM [falling, single point]	–
COc1ccc(C(=O)c2c3ccc(C(F)(F)F)cc3[n+]([O-])n2CCCN)cc1	-24.7	–	5.17 µM [falling, partial curve, poor fit]
Cc1ccccc1NC(=O)Cc1nc(COC(=O)c2ccc(O)cc2O)cs1	-45	20.6 µM [falling, single point]	3.26 µM [rising, partial curve]
